Assay results: paper PMC9582515
Results are given in words; binding and its absence hold for the method and conditions named. For part of these data: In cells and extracts the contact can be indirect. Some entries that bind do so weakly or less than the wild type. For part of these data: Tags and fused reporters may be left off the sequences shown.

T1: Dynein axonemal assembly factor 5 (DNAAF5), in HCC cell lysate (human) (UniProt Q86Y56)
T1 sequence: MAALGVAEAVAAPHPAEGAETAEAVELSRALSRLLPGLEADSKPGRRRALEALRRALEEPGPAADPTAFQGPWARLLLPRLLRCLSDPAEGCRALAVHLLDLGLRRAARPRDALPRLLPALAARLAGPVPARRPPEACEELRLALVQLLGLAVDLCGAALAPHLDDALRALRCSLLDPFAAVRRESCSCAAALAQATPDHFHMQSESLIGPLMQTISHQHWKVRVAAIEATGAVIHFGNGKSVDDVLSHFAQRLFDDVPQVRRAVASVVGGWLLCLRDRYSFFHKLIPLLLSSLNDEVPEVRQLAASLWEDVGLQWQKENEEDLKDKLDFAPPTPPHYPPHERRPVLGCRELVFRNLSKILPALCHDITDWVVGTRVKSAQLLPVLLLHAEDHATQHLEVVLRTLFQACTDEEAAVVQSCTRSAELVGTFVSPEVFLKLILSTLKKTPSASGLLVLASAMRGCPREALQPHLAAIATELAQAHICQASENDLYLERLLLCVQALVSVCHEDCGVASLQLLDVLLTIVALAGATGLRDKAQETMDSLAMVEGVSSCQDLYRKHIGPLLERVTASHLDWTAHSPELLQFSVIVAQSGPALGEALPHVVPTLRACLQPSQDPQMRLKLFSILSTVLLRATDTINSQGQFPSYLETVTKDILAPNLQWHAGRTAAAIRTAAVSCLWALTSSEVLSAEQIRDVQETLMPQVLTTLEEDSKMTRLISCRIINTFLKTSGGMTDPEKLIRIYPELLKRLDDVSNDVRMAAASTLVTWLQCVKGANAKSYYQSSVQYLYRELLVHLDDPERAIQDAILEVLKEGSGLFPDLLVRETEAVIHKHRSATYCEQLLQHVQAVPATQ

T2: PFKL (phosphofructokinase, liver type), in HCC cell lysate (human) (UniProt P17858)
T2 sequence: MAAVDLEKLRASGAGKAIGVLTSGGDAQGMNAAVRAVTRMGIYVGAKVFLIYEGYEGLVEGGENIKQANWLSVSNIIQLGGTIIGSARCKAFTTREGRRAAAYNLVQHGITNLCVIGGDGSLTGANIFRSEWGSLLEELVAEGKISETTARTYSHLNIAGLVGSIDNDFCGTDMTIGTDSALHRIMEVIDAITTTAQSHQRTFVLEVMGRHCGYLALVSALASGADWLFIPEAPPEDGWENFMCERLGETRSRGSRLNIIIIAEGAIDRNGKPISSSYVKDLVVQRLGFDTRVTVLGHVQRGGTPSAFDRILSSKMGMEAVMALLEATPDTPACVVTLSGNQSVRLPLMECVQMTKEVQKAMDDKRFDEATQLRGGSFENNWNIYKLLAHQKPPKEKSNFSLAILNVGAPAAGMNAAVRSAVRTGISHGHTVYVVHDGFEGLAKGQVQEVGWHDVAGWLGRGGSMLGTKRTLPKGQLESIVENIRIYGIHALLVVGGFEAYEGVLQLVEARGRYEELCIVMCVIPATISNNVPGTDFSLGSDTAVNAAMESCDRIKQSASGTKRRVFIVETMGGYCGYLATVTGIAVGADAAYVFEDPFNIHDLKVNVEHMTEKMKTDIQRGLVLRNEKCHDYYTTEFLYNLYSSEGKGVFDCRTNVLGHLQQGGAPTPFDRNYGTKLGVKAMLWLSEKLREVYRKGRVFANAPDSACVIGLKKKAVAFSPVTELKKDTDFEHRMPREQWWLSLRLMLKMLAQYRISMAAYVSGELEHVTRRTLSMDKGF

T3: GST-DNAAF5 (human) (UniProt Q86Y56)
T3 sequence: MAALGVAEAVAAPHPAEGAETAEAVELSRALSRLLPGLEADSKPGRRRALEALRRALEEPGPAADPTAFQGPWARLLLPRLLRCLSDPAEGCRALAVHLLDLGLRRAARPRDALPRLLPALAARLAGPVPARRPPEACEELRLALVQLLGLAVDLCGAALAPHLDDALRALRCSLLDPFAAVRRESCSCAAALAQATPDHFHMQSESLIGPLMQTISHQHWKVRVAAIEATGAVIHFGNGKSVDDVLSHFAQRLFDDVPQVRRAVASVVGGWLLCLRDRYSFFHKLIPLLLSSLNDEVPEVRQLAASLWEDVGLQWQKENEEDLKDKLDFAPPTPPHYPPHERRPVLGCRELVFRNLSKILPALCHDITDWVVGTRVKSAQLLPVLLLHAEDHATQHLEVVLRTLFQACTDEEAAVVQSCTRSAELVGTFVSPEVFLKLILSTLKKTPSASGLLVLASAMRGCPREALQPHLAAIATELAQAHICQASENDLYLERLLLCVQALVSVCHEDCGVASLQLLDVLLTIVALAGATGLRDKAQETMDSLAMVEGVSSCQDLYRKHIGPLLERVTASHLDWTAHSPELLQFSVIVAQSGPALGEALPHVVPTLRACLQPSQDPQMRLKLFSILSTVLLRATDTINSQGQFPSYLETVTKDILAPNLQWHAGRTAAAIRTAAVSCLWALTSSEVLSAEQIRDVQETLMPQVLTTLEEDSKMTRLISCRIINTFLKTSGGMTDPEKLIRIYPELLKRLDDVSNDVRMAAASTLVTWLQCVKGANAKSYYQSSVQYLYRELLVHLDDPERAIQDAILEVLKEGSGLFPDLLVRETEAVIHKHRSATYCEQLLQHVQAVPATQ

T4: GST-PFKL (human) (UniProt P17858)
T4 sequence: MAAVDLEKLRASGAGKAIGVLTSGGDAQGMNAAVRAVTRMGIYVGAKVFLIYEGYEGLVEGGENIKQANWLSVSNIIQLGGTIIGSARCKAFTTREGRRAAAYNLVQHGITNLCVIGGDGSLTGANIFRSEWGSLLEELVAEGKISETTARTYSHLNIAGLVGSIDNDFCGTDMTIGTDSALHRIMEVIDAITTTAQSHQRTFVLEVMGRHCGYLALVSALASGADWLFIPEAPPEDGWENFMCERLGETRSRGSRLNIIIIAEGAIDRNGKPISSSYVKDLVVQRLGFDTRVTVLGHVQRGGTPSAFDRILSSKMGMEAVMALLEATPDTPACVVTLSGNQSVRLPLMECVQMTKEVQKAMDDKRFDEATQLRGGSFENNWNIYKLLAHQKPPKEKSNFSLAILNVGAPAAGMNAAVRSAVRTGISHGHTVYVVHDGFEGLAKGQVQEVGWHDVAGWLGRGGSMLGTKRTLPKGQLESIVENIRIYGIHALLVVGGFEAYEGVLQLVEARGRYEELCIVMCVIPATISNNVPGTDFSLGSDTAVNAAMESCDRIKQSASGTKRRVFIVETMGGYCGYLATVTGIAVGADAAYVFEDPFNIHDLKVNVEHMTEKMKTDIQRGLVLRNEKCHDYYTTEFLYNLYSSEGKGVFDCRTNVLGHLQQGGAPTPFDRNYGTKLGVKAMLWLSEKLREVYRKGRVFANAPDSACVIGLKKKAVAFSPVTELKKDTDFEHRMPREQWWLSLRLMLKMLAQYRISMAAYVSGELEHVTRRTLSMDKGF


Legend:
[1] = biological target: T1, Dynein axonemal assembly factor 5 (DNAAF5), in HCC cell lysate (human); assay: co-IP; Hep3B cell lysate; IP antibody on Dynabead protein G overnight at 4 °C, immunoblotting; IgG as negative control
[2] = biological target: T2, PFKL (phosphofructokinase, liver type), in HCC cell lysate (human); assay: as above
[3] = biological target: T3, GST-DNAAF5 (human); assay: pull-down; GST- and His-pulldown with purified GST- and His-tagged proteins (Thermo Scientific kits 21516, 21277); GST alone as control; both purified
[4] = biological target: T4, GST-PFKL (human); assay: as above

| binding [1] | binding [2] | binding [3] | binding [4] | Binder |
| --- | --- | --- | --- | --- |
| binds | binds | – | – | USP39 (deubiquitination protein), in HCC cell lysate (protein, UniProt Q53GS9 1-565) MSGRSKRESRGSTRGKRESESRGSSGRVKRERDREREPEAASSRGSPVRVKREFEPASAREAPASVVPFVRVKREREVDEDSEPEREVRAKNGRVDSEDRRSRHCPYLDTINRSVLDFDFEKLCSISLSHINAYACLVCGKYFQGRGLKSHAYIHSVQFSHHVFLNLHTLKFYCLPDNYEIIDSSLEDITYVLKPTFTKQQIANLDKQAKLSRAYDGTTYLPGIVGLNNIKANDYANAVLQALSNVPPLRNYFLEEDNYKNIKRPPGDIMFLLVQRFGELMRKLWNPRNFKAHVSPHEMLQAVVLCSKKTFQITKQGDGVDFLSWFLNALHSALGGTKKKKKTIVTDVFQGSMRIFTKKLPHPDLPAEEKEQLLHNDEYQETMVESTFMYLTLDLPTAPLYKDEKEQLIIPQVPLFNILAKFNGITEKEYKTYKENFLKRFQLTKLPPYLIFCIKRFTKNNFFVEKNPTIVNFPITNVDLREYLSEEVQAVHKNTTYDLIANIVHDGKPSEGSYRIHVLHHGTGKWYELQDLQVTDILPQMITLSEAYIQIWKRRDNDETNQQGA |
| binds | – | – | – | PFKL (phosphofructokinase, liver type), in HCC cell lysate (enzyme, UniProt P17858 1-780) MAAVDLEKLRASGAGKAIGVLTSGGDAQGMNAAVRAVTRMGIYVGAKVFLIYEGYEGLVEGGENIKQANWLSVSNIIQLGGTIIGSARCKAFTTREGRRAAAYNLVQHGITNLCVIGGDGSLTGANIFRSEWGSLLEELVAEGKISETTARTYSHLNIAGLVGSIDNDFCGTDMTIGTDSALHRIMEVIDAITTTAQSHQRTFVLEVMGRHCGYLALVSALASGADWLFIPEAPPEDGWENFMCERLGETRSRGSRLNIIIIAEGAIDRNGKPISSSYVKDLVVQRLGFDTRVTVLGHVQRGGTPSAFDRILSSKMGMEAVMALLEATPDTPACVVTLSGNQSVRLPLMECVQMTKEVQKAMDDKRFDEATQLRGGSFENNWNIYKLLAHQKPPKEKSNFSLAILNVGAPAAGMNAAVRSAVRTGISHGHTVYVVHDGFEGLAKGQVQEVGWHDVAGWLGRGGSMLGTKRTLPKGQLESIVENIRIYGIHALLVVGGFEAYEGVLQLVEARGRYEELCIVMCVIPATISNNVPGTDFSLGSDTAVNAAMESCDRIKQSASGTKRRVFIVETMGGYCGYLATVTGIAVGADAAYVFEDPFNIHDLKVNVEHMTEKMKTDIQRGLVLRNEKCHDYYTTEFLYNLYSSEGKGVFDCRTNVLGHLQQGGAPTPFDRNYGTKLGVKAMLWLSEKLREVYRKGRVFANAPDSACVIGLKKKAVAFSPVTELKKDTDFEHRMPREQWWLSLRLMLKMLAQYRISMAAYVSGELEHVTRRTLSMDKGF |

The next lines start with the binder.

| Binder | binding [1] | binding [2] | binding [3] | binding [4] |
| --- | --- | --- | --- | --- |
| His-USP39 (protein, UniProt Q53GS9 1-565) MSGRSKRESRGSTRGKRESESRGSSGRVKRERDREREPEAASSRGSPVRVKREFEPASAREAPASVVPFVRVKREREVDEDSEPEREVRAKNGRVDSEDRRSRHCPYLDTINRSVLDFDFEKLCSISLSHINAYACLVCGKYFQGRGLKSHAYIHSVQFSHHVFLNLHTLKFYCLPDNYEIIDSSLEDITYVLKPTFTKQQIANLDKQAKLSRAYDGTTYLPGIVGLNNIKANDYANAVLQALSNVPPLRNYFLEEDNYKNIKRPPGDIMFLLVQRFGELMRKLWNPRNFKAHVSPHEMLQAVVLCSKKTFQITKQGDGVDFLSWFLNALHSALGGTKKKKKTIVTDVFQGSMRIFTKKLPHPDLPAEEKEQLLHNDEYQETMVESTFMYLTLDLPTAPLYKDEKEQLIIPQVPLFNILAKFNGITEKEYKTYKENFLKRFQLTKLPPYLIFCIKRFTKNNFFVEKNPTIVNFPITNVDLREYLSEEVQAVHKNTTYDLIANIVHDGKPSEGSYRIHVLHHGTGKWYELQDLQVTDILPQMITLSEAYIQIWKRRDNDETNQQGA | – | – | binds | binds |
| His-PFKL (enzyme, UniProt P17858 1-780) MAAVDLEKLRASGAGKAIGVLTSGGDAQGMNAAVRAVTRMGIYVGAKVFLIYEGYEGLVEGGENIKQANWLSVSNIIQLGGTIIGSARCKAFTTREGRRAAAYNLVQHGITNLCVIGGDGSLTGANIFRSEWGSLLEELVAEGKISETTARTYSHLNIAGLVGSIDNDFCGTDMTIGTDSALHRIMEVIDAITTTAQSHQRTFVLEVMGRHCGYLALVSALASGADWLFIPEAPPEDGWENFMCERLGETRSRGSRLNIIIIAEGAIDRNGKPISSSYVKDLVVQRLGFDTRVTVLGHVQRGGTPSAFDRILSSKMGMEAVMALLEATPDTPACVVTLSGNQSVRLPLMECVQMTKEVQKAMDDKRFDEATQLRGGSFENNWNIYKLLAHQKPPKEKSNFSLAILNVGAPAAGMNAAVRSAVRTGISHGHTVYVVHDGFEGLAKGQVQEVGWHDVAGWLGRGGSMLGTKRTLPKGQLESIVENIRIYGIHALLVVGGFEAYEGVLQLVEARGRYEELCIVMCVIPATISNNVPGTDFSLGSDTAVNAAMESCDRIKQSASGTKRRVFIVETMGGYCGYLATVTGIAVGADAAYVFEDPFNIHDLKVNVEHMTEKMKTDIQRGLVLRNEKCHDYYTTEFLYNLYSSEGKGVFDCRTNVLGHLQQGGAPTPFDRNYGTKLGVKAMLWLSEKLREVYRKGRVFANAPDSACVIGLKKKAVAFSPVTELKKDTDFEHRMPREQWWLSLRLMLKMLAQYRISMAAYVSGELEHVTRRTLSMDKGF | – | – | binds | – |
